We go through 19 compounds from PubChem BioAssay AID192 (DTP/NCI, 2004).

For this assay, the system named is BDF1 mice, B16 melanoma ip, median survival T/C. Nature of the assay: NCI In Vivo Anticancer Drug Screen. Data for tumor model B16 Melanoma (intraperitoneal) in B6D2F1 (BDF1) mice. Conditions: T/C endpoint: median survival time, higher T/C = longer survival. The essentials: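 Each result divides a survival or tumor-size measurement in the compound-treated group by the same measurement in the vehicle group.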

Where [1] appears, read: dose: 400.0 mg/kg/injection, schedule: Q01DX009 (ip), vehicle: Klucel (hydroxypropylcellulose) (HPC).
Where [2] appears, read: dose: 200.0 mg/kg/injection, schedule: Q01DX009 (ip), vehicle: saline.
The mark [3] stands for this setting: dose: 25.0 mg/kg/injection, schedule: Q01DX009 (ip), vehicle: Klucel (hydroxypropylcellulose) (HPC).
Setting [4] is: dose: 100.0 mg/kg/injection, schedule: Q01DX009 (ip), vehicle: Klucel (hydroxypropylcellulose) (HPC).
Setting [5] is: dose: 200.0 mg/kg/injection, schedule: Q01DX009 (ip), vehicle: Klucel (hydroxypropylcellulose) (HPC).
Where [6] appears, read: dose: 400.0 mg/kg/injection, schedule: Q01DX009 (ip), vehicle: saline.
Setting [7] is: dose: 25.0 mg/kg/injection, schedule: Q01DX009 (ip), vehicle: saline with Tween-80.
Setting [8] is: dose: 12.5 mg/kg/injection, schedule: Q01DX009 (ip), vehicle: Klucel (hydroxypropylcellulose) (HPC).
[9] abbreviates: dose: 50.0 mg/kg/injection, schedule: Q01DX009 (ip), vehicle: saline.

Molecules are shown by their SMILES. The list shows only some results of the screen, not a fair sample: it is rich in T/C values a quarter to a half above the control, in often repeated tests (any T/C) and in doses without a T/C. Other doses and runs of a compound stand elsewhere. T/C: endpoint of the treated group in % of that of the vehicle group. Some entries give survivors of the animals treated and no T/C: the source holds a T/C of zero for them, seemingly a mark for toxic or unscored doses. Some doses without a T/C left all or most animals alive at the check, yet need not have been tolerated: survival well below the control is almost never listed, so the zero probably covers shortened survival too. Counts of survivors are from the toxicity check (mostly the fifth day) where no day follows; animals may have died later. Schedules are NCI's codes, taken here to give the interval after Q, in days (D) or hours (H), and the number of doses after X. Signs of the kind (2×) say how often a value occurs here. Some entries hold several experiments; the results are listed from low to high. Where survival is the endpoint, the PubChem record calls one and a half times the control and up active, and a quarter to a half above the control has no call in these data; cut-offs in other NCI protocols can differ. Some T/C values carry the count of animals alive at the toxicity check (mostly the fifth day); without a count, all were alive then.

On to `CC(=O)CC(=O)Nc1ccc(-c2ccc(NC(=O)CC(C)=O)c(Cl)c2)cc1Cl`, for which the survivor count under setting [1] is on record as 10 of 10.

On to `OCCNCCNc1ccnc2cc(Cl)ccc12`, for which the survivor count under setting [2] is 7 of 10.

As to `Cc1cnccc1Br`, the survivor count (dose: 100.0 mg/kg/injection, schedule: Q01DX009 (ip), vehicle: water) is on record as 10 of 10 and the survivor count (dose: 200.0 mg/kg/injection, schedule: Q01DX009 (ip), vehicle: water) was 10 of 10.

On to `CCCN(CCC)C(C)C(O)c1cc2c(c3ccccc13)CCCC2` (centres undefined), for which the survivor count reads like this: under setting [3], 10 of 10; (dose: 50.0 mg/kg/injection, schedule: Q01DX009 (ip), vehicle: Klucel (hydroxypropylcellulose) (HPC)) 9 of 10; under setting [4], 6 of 10 and 10 of 10; under setting [5], 10 of 10; under setting [1], 10 of 10.

As for `O=[N+]([O-])O.[Ga]`, the survivor count under setting [2] is given as 2 of 6 and the survivor count under setting [6] is listed as 0 of 6.

Regarding `C=C1C(=O)O[C@@H]2C[C@@H](C)[C@@H]3C=CC(=O)[C@@]3(C)[C@@H](O)[C@H]12`, the survivor count was 5 of 10 (dose: 16.0 mg/kg/injection, schedule: Q01DX009 (ip), vehicle: saline + alcohol) and 4 of 10 (dose: 16.0 mg/kg/injection, schedule: Q01DX009 (ip), vehicle: saline).

As for `C[Si](C)(C)Cc1ccccc1`, under setting [1], the survivor count was 10 of 10.

On to `C[CH2][Pb]([CH2]C)([CH2]C)[O]C(=O)c1ccccc1`, for which the survivor count runs as follows: (dose: 3.0 mg/kg/injection, schedule: Q01DX009 (ip), vehicle: Klucel (hydroxypropylcellulose) (HPC)) 10 of 10; (dose: 6.0 mg/kg/injection, schedule: Q01DX009 (ip), vehicle: Klucel (hydroxypropylcellulose) (HPC)) 10 of 10; (dose: 12.0 mg/kg/injection, schedule: Q01DX009 (ip), vehicle: Klucel (hydroxypropylcellulose) (HPC)) 7 of 10.

With `N#C[CH2][Sn]([I])([c]1ccccc1)[c]1ccccc1`, the survivor count is recorded as 3 of 10 under setting [7] and 0 of 10 (dose: 50.0 mg/kg/injection, schedule: Q01DX009 (ip), vehicle: saline with Tween-80).

In the case of `CSCCC(NC(=O)c1ccccc1)C(=O)O` (centres undefined), the survivor count (dose: 100.0 mg/kg/injection, schedule: Q01DX009 (ip), vehicle: saline with Tween-80) is given as 10 of 10.

Take `COC(=O)[C@@H]1[C@H](O)[C@H](C)[C@H](O)[C@@](C)(O)/C=C\C=C(C)C(=O)Nc2c(C)c(OC(C)=O)c3c(c2O)C(=O)C(C)=C2OCOC(=C23)C(C)=C[C@@](C)(O)[C@H](O)[C@@H](C)[C@H]1OC(C)=O`: the survivor count was 9 of 10 under setting [4]; 7 of 10 and 10 of 10 under setting [5]; 3 of 10 under setting [1]; 10 of 10 (dose: 600.0 mg/kg/injection, schedule: Q01DX009 (ip), vehicle: saline with Tween-80). The T/C by setting is: under setting [5], 125 % of control; under setting [1], 142 % of control.

`O=C(CC(O)(C(F)(F)F)C(F)(F)F)c1ccccc1[N+](=O)[O-]`: the survivor count (dose: 1.5 mg/kg/injection, schedule: Q01DX009 (ip), vehicle: DMSO) is 10 of 10; the survivor count (dose: 3.0 mg/kg/injection, schedule: Q01DX009 (ip), vehicle: DMSO) is recorded as 10 of 10; the survivor count (dose: 6.0 mg/kg/injection, schedule: Q01DX009 (ip), vehicle: DMSO) was 10 of 10; the survivor count (dose: 6.25 mg/kg/injection, schedule: Q01DX009 (ip), vehicle: DMSO) was 10 of 10; the survivor count (dose: 12.5 mg/kg/injection, schedule: Q01DX009 (ip), vehicle: DMSO) was 10 of 10; the survivor count (dose: 25.0 mg/kg/injection, schedule: Q01DX009 (ip), vehicle: DMSO) is reported as 10 of 10.

As for `O=NN(CCCl)C(=O)Nc1c[nH]c2ccccc12`, the T/C runs as follows: (dose: 3.13 mg/kg/injection, schedule: Q01DX009 (ip), vehicle: Klucel (hydroxypropylcellulose) (HPC)) 129 % of control; (dose: 6.25 mg/kg/injection, schedule: Q01DX009 (ip), vehicle: Klucel (hydroxypropylcellulose) (HPC)) 128 % of control; under setting [8], 130 % of control; under setting [3], 143 % of control; under setting [4], 148 % of control [8 of 10 alive]. Also, the survivor count is, setting by setting: under setting [5], 5 of 10; under setting [1], 9 of 10.

As to `O=c1ncccn1[C@@H]1O[C@H](CO)[C@H](O)C1O` (some centres undefined), the T/C reads like this: under setting [9], 134 % of control; (dose: 100.0 mg/kg/injection, schedule: Q01DX009 (ip), vehicle: saline, evaluated on day 60) 127 % of control; (dose: 100.0 mg/kg/injection, schedule: Q01DX009 (ip), vehicle: saline, evaluated on day 65) 137 % of control; (dose: 200.0 mg/kg/injection, schedule: Q01DX009 (ip), vehicle: saline, evaluated on day 60) 130 % of control; (dose: 200.0 mg/kg/injection, schedule: Q01DX009 (ip), vehicle: saline, evaluated on day 65) 136 % of control; under setting [6], 130 % of control.

With `O=C1NC(=O)C([N+](=O)[O-])=C(O)C1=O`, the survivor count (dose: 300.0 mg/kg/injection, schedule: Q04DX003 (ip), vehicle: other) is reported as 10 of 10.

`Cc1ccc(S(=O)(=O)N/N=C/C(=O)O)cc1`: the survivor count by setting is: (dose: 3.12 mg/kg/injection, schedule: Q01DX009 (ip), vehicle: saline with Tween-80) 10 of 10; under setting [9], 10 of 10; under setting [4], 10 of 10 (2×); (dose: 100.0 mg/kg/injection, schedule: Q01DX009 (ip), vehicle: saline) 10 of 10; (dose: 140.0 mg/kg/injection, schedule: Q01DX009 (ip), vehicle: Klucel (hydroxypropylcellulose) (HPC)) 5 of 10; (dose: 140.0 mg/kg/injection, schedule: Q01DX009 (ip), vehicle: saline with Tween-80) 10 of 10. The survivor count is 9 of 10 under setting [5], 10 of 10 under setting [2] and 0 of 10 under setting [6]. The T/C reads like this: under setting [8], 125 % of control; (dose: 17.5 mg/kg/injection, schedule: Q01DX009 (ip), vehicle: saline with Tween-80) 126 % of control; (dose: 25.0 mg/kg/injection, schedule: Q01DX009 (ip), vehicle: Klucel (hydroxypropylcellulose) (HPC), evaluated on day 45) 143 % of control; (dose: 25.0 mg/kg/injection, schedule: Q01DX009 (ip), vehicle: Klucel (hydroxypropylcellulose) (HPC), evaluated on day 60) 136 % of control; under setting [7], 132 % of control; (dose: 35.0 mg/kg/injection, schedule: Q01DX009 (ip), vehicle: Klucel (hydroxypropylcellulose) (HPC)) 143 % of control. For the same compound, the T/C by setting is: (dose: 50.0 mg/kg/injection, schedule: Q01DX009 (ip), vehicle: Klucel (hydroxypropylcellulose) (HPC), evaluated on day 45) 131 % of control; (dose: 50.0 mg/kg/injection, schedule: Q01DX009 (ip), vehicle: Klucel (hydroxypropylcellulose) (HPC), evaluated on day 60) 125 % of control.

On to `O=C1NC(c2ccccc2)C(=O)N1CCN(CCCl)CCCl` (centres undefined), for which the survivor count reads like this: (dose: 6.25 mg/kg/injection, schedule: Q01DX009 (ip), vehicle: saline) 9 of 10; (dose: 25.0 mg/kg/injection, schedule: Q01DX009 (ip), vehicle: saline) 9 of 10.

In the case of `O=C1C(F)=C(N2CC2)C(=O)C(N2CCOCC2)=C1N1CC1`, the survivor count (dose: 6.0 mg/kg/injection, schedule: Q01DX009 (ip), vehicle: saline) was 10 of 10.

Turning to `O=C(O)C1C2CC3C(C2)C31.[Ag]` (centres undefined), the survivor count by setting is: under setting [4], 0 of 10; under setting [5], 0 of 10; under setting [1], 0 of 10.
